Results are given in words; binding and its absence hold for the method and conditions named. A result given as binding can be weak or reduced; the word gives no strength.
Columns and labels:
[1] = target: GST-PsAGL6 fusion protein (Paeonia suffruticosa (tree peony)); experiment: pull-down; GST fusion proteins immobilised on Glutathione Magnetic Agarose Beads; MBP-PsAGL9 incubated with the beads; immunoblot with anti-MBP or anti-GST; both purified
[2] = target: GST-PsAGL9 fusion protein (Paeonia suffruticosa (tree peony)) (UniProt V9I0Q3); experiment: as above

The chains behind the UniProt entries cited, without tags or fusion partners. Where a name states a change or a piece, a line headed by the entry shows the natural chain unless it says otherwise.
UniProt V9I0Q3: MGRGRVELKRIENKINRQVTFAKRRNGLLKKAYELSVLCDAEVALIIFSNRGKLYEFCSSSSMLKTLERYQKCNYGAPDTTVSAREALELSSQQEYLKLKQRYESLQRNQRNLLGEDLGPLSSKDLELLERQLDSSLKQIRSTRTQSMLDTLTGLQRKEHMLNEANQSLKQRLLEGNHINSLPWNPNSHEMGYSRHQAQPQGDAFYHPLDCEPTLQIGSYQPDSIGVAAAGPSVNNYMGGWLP

binding [1]: binds
binding [2]: binds
Substance: MBP-PsAGL9 fusion protein (from UniProt V9I0Q3)
